# Measured values as given in PubChem BioAssay (NCATS).
# The inconclusive results got no clear call from the source; some entries with a clear call stand among them for comparison. A potency beside an inconclusive call is a rough fit, not a confirmed value. Calls of active or inactive are those of the source. Calls come from the whole dose curve; as a rule, active = well fitted cell-killing curve with a large enough effect; inconclusive = small, poorly fitted or top-dose-only effect, or effect the other way; inactive = no such curve, though single readings can be large or run the other way.
# Test: Quantitative High-Throughput drug screen in 47 multiple myeloma cell lines against the NCATS MIPE library collection: L363_DSMZ cell viability assay (AID 1918984); note: nearly all actives have a fitted effect of over 40% in size
# Details: L363 myeloma viability, CellTiter-Glo ATP luminescence, 48 h; viability (% of control): at 45.8 µM (top of the series)
# Excerpt: PI: Beverly A. Mock Ph.D.
# Laboratory of Cancer Biology and Genetics,
# Center for Cancer Research, National Cancer Institute,
# National Institute of Health, Bethesda, Maryland
# Drug resistance and disease progression are common in multiple myeloma (MM) patients, underscoring the need for new therapeutic combinations. […] We hypothesized that effective combinations would reduce MYC expression and enhance p16 activity. […] These preclinical data identify potentially useful drug combinations for evaluation in drug-resistant MM and reveal potential mechanisms of combined drug sensitivity.
# Described herein is the primary MIPE qHTS used to cherrypick compounds. Validated compounds were then further tested for potential synergistic activiy.
# [1] Peat TJ, Gaikwad SM, Dubois W, Gyabaah-Kessie N, Zhang S, Gorjifard S, Phyo Z, Andres M, Hughitt VK, Simpson RM, Miller MA, Girvin AT, Taylor A, Williams D, D'Antonio N, Zhang Y, Rajagopalan A, Flietner E, Wilson K, Zhang X, Shinn P, Klumpp-Thomas C, McKnight C, Itkin Z, Chen L, Kazandijian D, Zhang J, Michalowski AM, Simmons JK, Keats J, Thomas CJ, Mock BA. Drug combinations identified by high-throughput screening promote cell cycle transition and upregulate Smad pathways in myeloma. Cancer Lett. 2023 Aug 1;568:216284. doi: 10.1016/j.canlet.2023.216284. Epub 2023 Jun 24. PMID: 37356470; PMCID: PMC10408729.
# SEQUENCE No. (e.g., 1, 2, 3, etc.); […] (e.g., Cells, Incubation, Reagent, etc.); VALUE and DESCRIPTION.
# 1; Cells; 5 uL; white, solid bottom 1536-well Greiner assay plate.
# 2; Compounds; 23 nL; Kalypsis pin tool (Wako USA) equipped with a 1536-well pin head to transfer to the assay plates.
# 3; Incubation; 48 hours; 37C incubation.
# 4; Reagent;5uL; CellTiter Glo (Promega).
# 5; Detector; 425V; Luminescence; Viewlux PerkinElmer.
# NOTES (numbers refer to Sequence numbers above)
# 1. The cell-based screening methods employed in this study were like those previously published. Briefly, the corresponding myeloma cell lines were screened in 1,536-well plates with 500 cells, 5-uL per well for inhibition of cell viability (assessed by measuring ATP levels with CellTiterGlo).
# 2. NCATS MIPE 4.0 library of approved and investigational drugs were added using the Kalypsis pin tool. Wells treated with DMSO only for 100% viability and media only for 0% viability were used as controls.
# 3. The assay plates were covered and incubated for 48 hours in a 37C, 5% CO2 incubator with controlled humidity.
# 4. After 48 hours, CellTilter-GloTM luminescent substrate mix (Promega) reagent was added to the assay plate and plates we incubated for 5 min at room temperature.
# 5. Signal was measured as median relative luminescence units on a ViewLux (PerkinElmer) multiplate reader.
# [1] Heske CM, Davis MI, Baumgart JT, Wilson K, Gormally MV, Chen L, Zhang X, Ceribelli M, Duveau DY, Guha R, Ferrer M, Arnaldez FI, Ji J, Tran HL, Zhang Y, Mendoza A, Helman LJ, Thomas CJ. Matrix Screen Identifies Synergistic Combination of PARP Inhibitors and Nicotinamide Phosphoribosyltransferase (NAMPT) Inhibitors in Ewing Sarcoma. Clin Cancer Res. 2017 Dec 1;23(23):7301-7311. doi: 10.1158/1078-0432.CCR-17-1121. Epub 2017 Sep 12. PMID: 28899971; PMCID: PMC6636827.
# Potency is the fitted concentration of half-maximal effect.
Structure (SMILES),Potency,viability (% of control)
COc1ccc(-c2oc3c(CC=C(C)C)c(O)cc(O)c3c(=O)c2O)cc1,"inconclusive: 10.5 nM [rising, full curve, poor fit]",–
Cc1nc(NC(=O)N2CCC[C@@H]2C(N)=O)sc1-c1csc(C(C)(C)C)n1,active: 833 nM,–
CCN[C@H]1C[C@H](C)S(=O)(=O)c2sc(S(N)(=O)=O)cc21,inactive,–
NNCCc1ccccc1,"inconclusive: 296 nM [cytotoxic, full curve, poor fit]",–
CC(C(C)N1CC(=O)NC(=O)C1)N1CC(=O)NC(=O)C1 (stereo not given),"inconclusive: 264 nM [rising, full curve, poor fit]",–
CC(C(=O)O)c1ccc2c(c1)CC(=O)c1ccccc1S2 (stereo not given),"inconclusive: 148 nM [cytotoxic, full curve, poor fit]",–
OCCN1C[C@H](O)[C@@H](O)[C@H](O)[C@@H]1CO,inactive,–
CO[C@@]12[C@H](COC(N)=O)C3=C(C(=O)C(C)=C(N)C3=O)N1C[C@@H]1N[C@@H]12,inconclusive: 1 nM,–
CCOc1cc(C=C2C(=O)N(c3ccccc3)N=C2C)cc(Cl)c1OCC(=O)OC,"inconclusive: 4180 nM [cytotoxic, full curve]",–
CCCCc1nc2cc(C=CC(=O)NO)ccc2n1CCN(CC)CC,"inconclusive: 10.5 nM [cytotoxic, full curve, poor fit]",–
Nc1ncnc2c1ncn2[C@@H]1O[C@H](CO)[C@@H](O)[C@@H]1O,active: 1050 nM,–
C[C@H](CCC(=O)O)[C@H]1CCC2C3C[C@H](O)[C@@H]4C[C@H](O)CC[C@]4(C)C3CC[C@@]21C (stereo not given in full),inactive,–
CC(C[N+](C)(C)C)OC(N)=O (stereo not given),inconclusive: 1 nM,–
Cc1ccc(S(=O)(=O)Nc2cc(Cl)ccc2C(=O)Nc2nc(-c3ccccc3)cs2)cc1,"inconclusive: 11800 nM [cytotoxic, single point]",–
NC[C@H]1O[C@H](O[C@H]2[C@@H](O)[C@@H](O[C@H]3O[C@H](CO)[C@@H](O)[C@H](N)[C@@H]3O)[C@H](N)C[C@@H]2N)[C@H](N)C[C@H]1O,inactive,–
COc1ccc(S(=O)(=O)Nc2cc(-c3c(O)ccc4ccccc34)c(O)c3ccccc23)cc1,active: 2640 nM,–
O=C(CCCCCCNC(=O)c1cnc(N(c2ccccc2)c2ccccc2)nc1)NO,active: 4690 nM,–
CCOC(=O)C1=C[C@@H](OC(CC)CC)[C@H](NC(C)=O)[C@@H](N)C1,"inconclusive: 37200 nM [rising, single point]",–
CC#C[C@]1(O)CC[C@H]2[C@@H]3CCC4=CC(=O)CCC4=C3[C@@H](c3ccc(N(C)C)cc3)C[C@@]21C,active: 2640 nM,–
Cc1cnc(Nc2ccc(F)cc2Cl)nc1-c1c[nH]c(C(=O)N[C@H](CO)c2cccc(Cl)c2)c1,active: 1320 nM,–

Structure (SMILES),Potency,viability (% of control)
CO[C@@H]1[C@@H](O)[C@H](O)[C@@H](n2c3c(Cl)cccc3c3c4c(c5c6cccc(Cl)c6[nH]c5c32)C(=O)NC4=O)O[C@@H]1CO,active: 1050 nM,–
COc1c(C)c2c(c(O)c1CC=C(C)CCC(=O)O)C(=O)OC2,"inconclusive: 332 nM [cytotoxic, full curve, poor fit]",–
NCCCC(O)(P(=O)(O)O)P(=O)(O)O,"inconclusive: 7430 nM [cytotoxic, single point]",–
CCc1cc2c(cc1N1CCC(N3CCOCC3)CC1)C(C)(C)c1[nH]c3cc(C#N)ccc3c1C2=O,"inconclusive: 14.8 nM [rising, full curve, poor fit]",–
CC(C)N(CC[C@H](c1ccccc1)c1cc(CO)ccc1O)C(C)C,inactive,–
Cc1cc(NC(=O)Nc2ccc(N(C)C)cc2)c2cc(F)cc(F)c2n1,"inconclusive: 2960 nM [cytotoxic, full curve, poor fit]",–
c1cc(CN2CCCNCCNCCCNCC2)ccc1CN1CCCNCCNCCCNCC1,inactive,–
Oc1c(Cl)cc(Cl)c2cccnc12,active: 9350 nM,–
COc1ccc(C=Cc2cc(OC)c(OC)c(OC)c2)cc1NC(=O)[C@H](N)CO,active: 9.3 nM,–
CC(C)C[C@H](NC(=O)[C@H](Cc1ccccc1)NC(=O)c1cnccn1)B(O)O,"inconclusive: 10.5 nM [cytotoxic, full curve, poor fit]",–
CN(CC=CC#CC(C)(C)C)Cc1cccc2ccccc12,"inconclusive: 11.8 nM [rising, full curve, poor fit]",–
CC(=O)OC[C@@H]1O[C@@H](n2ccc(=O)[nH]c2=O)[C@H](OC(C)=O)[C@H]1OC(C)=O,"inconclusive: 16.6 nM [cytotoxic, full curve, poor fit]",–
Nc1nc2c(c(=O)[nH]1)N(C=O)[C@H](CNc1ccc(C(=O)N[C@@H](CCC(=O)O)C(=O)O)cc1)CN2,"inconclusive: 166 nM [rising, full curve, poor fit]",–
Cc1cnc(CNC(=O)c2c(=O)c3ccc(N4CCCN(C)CC4)nc3n3c2sc2ccccc23)cn1,"inconclusive: 4070 nM [cytotoxic, partial curve, poor fit]",–
Cc1ccc(NC(=O)Nc2cc(C(F)(F)F)ccc2F)cc1Nc1ccc2c(c1)NC(=O)C2=Cc1ccc[nH]1,active: 7430 nM,–
CC[C@@H]1C(=O)N(C)c2cnc(Nc3ccc(C(=O)NC4CCN(C)CC4)cc3OC)nc2N1C1CCCC1,"inconclusive: 105 nM [cytotoxic, full curve, poor fit]",–
CC(=O)O[C@H]1C[C@@H]2CC[C@H]3[C@H]4C[C@H]([N+]5(C)CCCCC5)[C@@H](OC(C)=O)[C@@]4(C)CC[C@@H]3[C@@]2(C)C[C@H]1[N+]1(C)CCCCC1,inactive,–
Nc1ccn([C@@H]2O[C@H](CO)[C@H](O)C2(F)F)c(=O)n1,"inconclusive: 4180 nM [cytotoxic, partial curve, poor fit]",–
COc1cccc(OC)c1-c1cc(C(=O)NC2(C(=O)O)C3CC4CC(C3)CC2C4)nn1-c1ccnc2cc(Cl)ccc12 (stereo not given),–,inconclusive: 69.6% [cytotoxic]
Cc1ccc(S(=O)(=O)Nc2nc3ccccc3nc2Nc2ccc3nsnc3c2)cc1,active: 204 nM,–

# Whole records from above. Values in the order: Potency	viability (% of control)
# `Oc1c(Cl)cc(Cl)c2cccnc12` in the list: active: 9350 nM	–
# `Cc1cc(NC(=O)Nc2ccc(N(C)C)cc2)c2cc(F)cc(F)c2n1` in the list: inconclusive: 2960 nM [cytotoxic, full curve, poor fit]	–
# `CC[C@@H]1C(=O)N(C)c2cnc(Nc3ccc(C(=O)NC4CCN(C)CC4)cc3OC)nc2N1C1CCCC1` in the list: inconclusive: 105 nM [cytotoxic, full curve, poor fit]	–
